Data from PubChem BioAssay AID248 (DTP/NCI, 2004).
The list is a part of this screen's results and no random one: it is rich in T/C values a quarter to a half above the control, in often repeated tests (any T/C) and in doses without a T/C. Other doses and runs of a compound stand elsewhere. T/C gives the treated animals as a percentage of the vehicle group. Some doses have a count of surviving animals in place of a T/C: the source holds a T/C of zero for them, seemingly a mark for toxic or unscored doses. Some doses without a T/C left all or most animals alive at the check, yet need not have been tolerated: the source hardly ever lists a survival T/C far under the control, and the zero likely stands for such cases as well. Counts of survivors are from the toxicity check (mostly the fifth day) where no day follows; animals may have died later. Schedules are NCI's codes, read here as Q, the interval in days (D) or hours (H), X, the number of doses. Some structures stand for samples that the source files as different forms (salt, stereo form or complex); doses refer to the form tested. Some entries were tested several times; the results are listed from low to high. For survival time, the PubChem record calls one and a half times the control and up active, and a quarter to a half above the control has no call in these data; cut-offs in other NCI protocols can differ. Some T/C values are followed by the survivors on the day toxicity was checked, most often the fifth; without a count, all were alive then.

System: L1210 leukemia ip in BDF1 mice, survival T/C
Test: NCI In Vivo Anticancer Drug Screen. Data for tumor model L1210 Leukemia (intraperitoneal) in B6D2F1 (BDF1) mice
Details: T/C endpoint: median survival time, vehicle: saline, higher T/C = longer survival

Question: Which T/C (dose: 16.0 mg/kg/injection, schedule: Q03HX024 (ip)) does the source give for NC(C/[N+]([O-])=N/O)C(=O)O (stereo unspecified) here?
Answer: 133 % of control

Question: And the T/C (dose: 32.0 mg/kg/injection, schedule: Q01DX009 (ip), evaluated on day 60)?
Answer: 138 % of control

Question: And the T/C (dose: 32.0 mg/kg/injection, schedule: Q01DX009 (ip), evaluated on day 62)?
Answer: 133 % of control

Question: What about the T/C (dose: 32.0 mg/kg/injection, schedule: Q03HX008 (ip)) of the same molecule?
Answer: 133 % of control

Question: And the T/C (dose: 32.0 mg/kg/injection, schedule: Q03HX016 (ip))?
Answer: 138 % of control

Question: What about the T/C (dose: 32.0 mg/kg/injection, schedule: Q03HX024 (ip)) of the same molecule?
Answer: 144 % of control

Question: And the T/C (dose: 32.0 mg/kg/injection, schedule: Q04DX003 (ip))?
Answer: 133 % of control

Question: What about the survivor count (dose: 64.0 mg/kg/injection, schedule: Q01DX009 (oral)) of the same molecule?
Answer: 8 of 10 and 9 of 10

Question: And the T/C (dose: 64.0 mg/kg/injection, schedule: Q01DX009 (sc))?
Answer: 133 % of control

Question: And the T/C (dose: 64.0 mg/kg/injection, schedule: Q03HX008 (ip))?
Answer: 144 % of control [9 of 10 alive]

Question: And the T/C (dose: 64.0 mg/kg/injection, schedule: Q04DX003 (ip))?
Answer: 133 % of control

Question: And the T/C (dose: 64.0 mg/kg/injection, schedule: Q04DX003 (sc))?
Answer: 133 % of control

Question: And the T/C (dose: 64.0 mg/kg/injection, schedule: Q08DX002 (ip))?
Answer: 133 % of control

Question: What about the T/C (dose: 128.0 mg/kg/injection, schedule: Q01DX001 (ip)) of the same molecule?
Answer: 133 % of control

Question: And the T/C (dose: 128.0 mg/kg/injection, schedule: Q01DX001 (sc))?
Answer: 133 % of control

Question: What about the survivor count (dose: 128.0 mg/kg/injection, schedule: Q01DX009 (ip)) of the same molecule?
Answer: 10 of 10

Question: And the survivor count (dose: 128.0 mg/kg/injection, schedule: Q01DX009 (oral))?
Answer: 7 of 10

Question: What about the survivor count (dose: 128.0 mg/kg/injection, schedule: Q01DX009 (sc)) of the same molecule?
Answer: 9 of 10 and 10 of 10

Question: What about the T/C (dose: 128.0 mg/kg/injection, schedule: Q03HX008 (ip)) of the same molecule?
Answer: 144 % of control [9 of 10 alive]

Question: What about the T/C (dose: 128.0 mg/kg/injection, schedule: Q04DX003 (ip), evaluated on day 19) of the same molecule?
Answer: 138 % of control

Question: And the T/C (dose: 128.0 mg/kg/injection, schedule: Q04DX003 (ip), evaluated on day 60)?
Answer: 144 % of control

Question: What about the T/C (dose: 128.0 mg/kg/injection, schedule: Q04DX003 (sc)) of the same molecule?
Answer: 138 % of control

Question: And the T/C (dose: 128.0 mg/kg/injection, schedule: Q08DX002 (ip))?
Answer: 133 % of control

Question: What about the T/C (dose: 256.0 mg/kg/injection, schedule: Q01DX001 (ip)) of the same molecule?
Answer: 133 % of control

Question: And the T/C (dose: 256.0 mg/kg/injection, schedule: Q01DX001 (sc))?
Answer: 133 % of control

Question: And the survivor count (dose: 256.0 mg/kg/injection, schedule: Q01DX009 (ip))?
Answer: 3 of 10

Question: And the survivor count (dose: 256.0 mg/kg/injection, schedule: Q01DX009 (oral))?
Answer: 3 of 10

Question: And the survivor count (dose: 256.0 mg/kg/injection, schedule: Q01DX009 (sc))?
Answer: 10 of 10

Question: And the survivor count (dose: 256.0 mg/kg/injection, schedule: Q03HX008 (ip))?
Answer: 7 of 10

Question: And the T/C (dose: 256.0 mg/kg/injection, schedule: Q03HX016 (ip))?
Answer: 138 % of control [8 of 10 alive]

Question: What about the survivor count (dose: 256.0 mg/kg/injection, schedule: Q03HX024 (ip)) of the same molecule?
Answer: 8 of 10

Question: What about the T/C (dose: 256.0 mg/kg/injection, schedule: Q04DX003 (sc)) of the same molecule?
Answer: 127 % of control

Question: What about the T/C (dose: 256.0 mg/kg/injection, schedule: Q08DX002 (ip)) of the same molecule?
Answer: 133 % of control

Question: And the T/C (dose: 256.0 mg/kg/injection, schedule: Q08DX002 (sc))?
Answer: 133 % of control

Question: What about the T/C (dose: 400.0 mg/kg/injection, schedule: Q04DX003 (ip)) of the same molecule?
Answer: 133 % of control [5 of 6 alive]

Question: And the T/C (dose: 512.0 mg/kg/injection, schedule: Q01DX001 (oral))?
Answer: 127 % of control

Question: And the survivor count (dose: 512.0 mg/kg/injection, schedule: Q01DX009 (ip))?
Answer: 2 of 10

Question: What about the survivor count (dose: 512.0 mg/kg/injection, schedule: Q01DX009 (oral)) of the same molecule?
Answer: 3 of 10

Question: What about the survivor count (dose: 512.0 mg/kg/injection, schedule: Q01DX009 (sc)) of the same molecule?
Answer: 8 of 10

Question: And the T/C (dose: 512.0 mg/kg/injection, schedule: Q04DX003 (ip))?
Answer: 127 % of control

Question: What about the T/C (dose: 512.0 mg/kg/injection, schedule: Q04DX003 (oral)) of the same molecule?
Answer: 138 % of control [9 of 10 alive]

Question: And the T/C (dose: 512.0 mg/kg/injection, schedule: Q08DX002 (sc))?
Answer: 144 % of control

Question: And the T/C (dose: 600.0 mg/kg/injection, schedule: Q04DX003 (ip))?
Answer: 127 and 144 % of control [5 of 6 alive]

Question: And the T/C (dose: 800.0 mg/kg/injection, schedule: Q04DX003 (ip))?
Answer: 133 and 144 % of control

Question: And the T/C (dose: 1000.0 mg/kg/injection, schedule: Q04DX003 (ip))?
Answer: 138 % of control

Question: And the T/C (dose: 1024.0 mg/kg/injection, schedule: Q01DX001 (ip))?
Answer: 133 % of control [9 of 10 alive]

Question: And the survivor count (dose: 1024.0 mg/kg/injection, schedule: Q01DX009 (ip))?
Answer: 0 of 10

Question: What about the survivor count (dose: 1024.0 mg/kg/injection, schedule: Q01DX009 (oral)) of the same molecule?
Answer: 0 of 10

Question: What about the survivor count (dose: 1024.0 mg/kg/injection, schedule: Q01DX009 (sc)) of the same molecule?
Answer: 5 of 10

Question: And the T/C (dose: 1024.0 mg/kg/injection, schedule: Q08DX002 (ip))?
Answer: 144 % of control [9 of 10 alive]

Question: What about the T/C (dose: 1024.0 mg/kg/injection, schedule: Q08DX002 (sc)) of the same molecule?
Answer: 144 % of control
